Test results published in article PMC3587421, “Native Tertiary Structure and Nucleoside Modifications Suppress tRNA’s Intrinsic Ability to Activate the Innate Immune Sensor PKR”.
For at least one entry, the source does not settle the construct or the ends of the probe.

By UniProt entry, the sequences of proteins in these tests, tags left out. Residues count along the entry.
UniProt P19525, 1-184: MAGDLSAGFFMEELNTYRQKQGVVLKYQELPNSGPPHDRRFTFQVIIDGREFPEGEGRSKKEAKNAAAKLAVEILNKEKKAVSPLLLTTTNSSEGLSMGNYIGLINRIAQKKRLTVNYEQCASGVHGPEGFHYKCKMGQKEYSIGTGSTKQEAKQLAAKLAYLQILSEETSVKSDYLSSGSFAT

Target: PKR dsRBD (P20) (UniProt P19525)
Experiment: EMSA
Settings: 0.1 mg/mL native yeast tRNAPhe competitor, Hill undetermined; none (unmodified transcript); 25 mM Hepes-KOH pH 7.5, 10 mM NaCl, 5% glycerol, 5 mM DTT, 0.1 mM EDTA, 0.1 mg/mL tRNAPhe or herring sperm DNA; room temperature 10 min; 10% native gel, 0.5x TB, 16 C; recombinant protein; label: 5'-32P

## UUAAGAUGGCAGAGCCCGGUAAUCGCAUAAAACUUAAAACUUUACAGUCAGAGGUUCAAUUCCUCUUCUUAACACCA [T7 mt-tRNALeu WT (monomer)]
  Kd: > 20 µM
